Data: the supplement of paper PMC7661543
± gives the standard deviation of the averaged measurements. The effect of the compound repeats well; differences between the knockouts mostly do not.

Test system: SKBR3
Assay: relative cell number vs DMSO control (72 h) (% of DMSO); higher = less growth inhibition (more cells)
Description: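 QMAP-Seq: a pool of 5 breast cancer cell lines (ZR-75-1, SKBR3, HCC-38, MDA-MB-231, BT-20), each carrying 12 doxycycline-inducible Cas9 sgRNA perturbations (11 knockouts plus non-targeting sgNT), was treated with compounds for 72 h at four 10-fold doses (10 nM-10 uM or 1 nM-1 uM range). Barcodes were amplified and sequenced, and cell number was interpolated from 293T spike-in standard curves. The result is expressed as % of the median of DMSO wells. Two biological replicates.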

COc1cc2c(cc1-c1c(C)noc1C)ncc1[nH]c(=O)n([C@H](C)c3ccccn3)c12 [IBET151]
Settings	relative cell number
sgRNA knockout: sgATF3, 10 nM	106 ± 30
sgRNA knockout: sgATF3, 100 nM	121 ± 45
sgRNA knockout: sgATF3, 1000 nM	59.3 ± 9.4
sgRNA knockout: sgATF3, 10000 nM	33.9 ± 8.1
sgRNA knockout: sgATF4, 10 nM	94.9 ± 1.2
sgRNA knockout: sgATF4, 100 nM	84.1 ± 8
sgRNA knockout: sgATF4, 1000 nM	54 ± 2.1
sgRNA knockout: sgATF4, 10000 nM	37.3 ± 2.2
sgRNA knockout: sgATF6, 10 nM	85.6 ± 24
sgRNA knockout: sgATF6, 100 nM	95.11 ± 0.69
sgRNA knockout: sgATF6, 1000 nM	55.8 ± 3
sgRNA knockout: sgATF6, 10000 nM	42.8 ± 13
sgRNA knockout: sgATG7, 10 nM	65 ± 12
sgRNA knockout: sgATG7, 100 nM	98.3 ± 20
sgRNA knockout: sgATG7, 1000 nM	57.6 ± 4.8
sgRNA knockout: sgATG7, 10000 nM	47.5 ± 6.2
sgRNA knockout: sgERN1, 10 nM	101 ± 27
sgRNA knockout: sgERN1, 100 nM	66.1 ± 8.7
sgRNA knockout: sgERN1, 1000 nM	50 ± 1.1
sgRNA knockout: sgERN1, 10000 nM	43.7 ± 9.6
sgRNA knockout: sgHSF1, 10 nM	73 ± 13
sgRNA knockout: sgHSF1, 100 nM	70 ± 12
sgRNA knockout: sgHSF1, 1000 nM	51 ± 3.9
sgRNA knockout: sgHSF1, 10000 nM	40.1 ± 5.9
sgRNA knockout: sgHSF2, 10 nM	97.7 ± 1.8
sgRNA knockout: sgHSF2, 100 nM	78.1 ± 25
sgRNA knockout: sgHSF2, 1000 nM	41.1 ± 7.3
sgRNA knockout: sgHSF2, 10000 nM	34.5 ± 3
sgRNA knockout: sgKEAP1, 10 nM	76.2 ± 15
sgRNA knockout: sgKEAP1, 100 nM	79.8 ± 0.96
sgRNA knockout: sgKEAP1, 1000 nM	52.6 ± 10
sgRNA knockout: sgKEAP1, 10000 nM	42.9 ± 13
sgRNA knockout: sgNFE2L2, 10 nM	106 ± 12
sgRNA knockout: sgNFE2L2, 100 nM	61.4 ± 19
sgRNA knockout: sgNFE2L2, 1000 nM	51.1 ± 3.8
sgRNA knockout: sgNFE2L2, 10000 nM	45.4 ± 15
sgRNA knockout: sgSLC35F2, 10 nM	86.9 ± 5.8
sgRNA knockout: sgSLC35F2, 100 nM	94.6 ± 25
sgRNA knockout: sgSLC35F2, 1000 nM	51.9 ± 1.5
sgRNA knockout: sgSLC35F2, 10000 nM	38.9 ± 12
sgRNA knockout: sgXBP1, 10 nM	79.8 ± 15
sgRNA knockout: sgXBP1, 100 nM	93.4 ± 20
sgRNA knockout: sgXBP1, 1000 nM	59.8 ± 7.5
sgRNA knockout: sgXBP1, 10000 nM	31.6 ± 1.3

O=C(/C=C/c1ccc(O)cc1)c1ccc(O)cc1O [Isoliquiritigenin]
Settings	relative cell number
sgRNA knockout: sgATF3, 10 nM	105 ± 19
sgRNA knockout: sgATF3, 100 nM	107 ± 32
sgRNA knockout: sgATF3, 1000 nM	95.2 ± 8.8
sgRNA knockout: sgATF3, 10000 nM	96 ± 3.6
sgRNA knockout: sgATF4, 10 nM	88.5 ± 4.5
sgRNA knockout: sgATF4, 100 nM	98.3 ± 3.6
sgRNA knockout: sgATF4, 1000 nM	89.4 ± 18
sgRNA knockout: sgATF4, 10000 nM	83.2 ± 0.27
sgRNA knockout: sgATF6, 10 nM	105 ± 4.3
sgRNA knockout: sgATF6, 100 nM	98.6 ± 27
sgRNA knockout: sgATF6, 1000 nM	84.6 ± 11
sgRNA knockout: sgATF6, 10000 nM	96.8 ± 5.8
sgRNA knockout: sgATG7, 10 nM	89.9 ± 26
sgRNA knockout: sgATG7, 100 nM	92.1 ± 13
sgRNA knockout: sgATG7, 1000 nM	85.8 ± 9.3
sgRNA knockout: sgATG7, 10000 nM	103 ± 22
sgRNA knockout: sgERN1, 10 nM	104 ± 11
sgRNA knockout: sgERN1, 100 nM	125 ± 20
sgRNA knockout: sgERN1, 1000 nM	110 ± 27
sgRNA knockout: sgERN1, 10000 nM	102 ± 6.6
sgRNA knockout: sgHSF1, 10 nM	96.7 ± 15
sgRNA knockout: sgHSF1, 100 nM	105 ± 15
sgRNA knockout: sgHSF1, 1000 nM	91.4 ± 21
sgRNA knockout: sgHSF1, 10000 nM	88.9 ± 10
sgRNA knockout: sgHSF2, 10 nM	86.7 ± 5.1
sgRNA knockout: sgHSF2, 100 nM	99.3 ± 15
sgRNA knockout: sgHSF2, 1000 nM	83.5 ± 21
sgRNA knockout: sgHSF2, 10000 nM	83 ± 7.7
sgRNA knockout: sgKEAP1, 10 nM	93.9 ± 5.4
sgRNA knockout: sgKEAP1, 100 nM	98.3 ± 8
sgRNA knockout: sgKEAP1, 1000 nM	88.4 ± 5.1
sgRNA knockout: sgKEAP1, 10000 nM	85.5 ± 5.8
sgRNA knockout: sgNFE2L2, 10 nM	85.7 ± 3.8
sgRNA knockout: sgNFE2L2, 100 nM	99.4 ± 2.4
sgRNA knockout: sgNFE2L2, 1000 nM	84.5 ± 3.6
sgRNA knockout: sgNFE2L2, 10000 nM	84.1 ± 2.9
sgRNA knockout: sgSLC35F2, 10 nM	95.4 ± 11
sgRNA knockout: sgSLC35F2, 100 nM	84 ± 16
sgRNA knockout: sgSLC35F2, 1000 nM	77.4 ± 10
sgRNA knockout: sgSLC35F2, 10000 nM	82.5 ± 16
sgRNA knockout: sgXBP1, 10 nM	106 ± 25
sgRNA knockout: sgXBP1, 100 nM	97.6 ± 9
sgRNA knockout: sgXBP1, 1000 nM	109 ± 15
sgRNA knockout: sgXBP1, 10000 nM	75 ± 24

COc1cc2nccc(Oc3ccc(NC(=O)NC4CC4)c(Cl)c3)c2cc1C(N)=O [Lenvatinib]
Settings	relative cell number
sgRNA knockout: sgATF3, 10 nM	113 ± 1.3
sgRNA knockout: sgATF3, 100 nM	129 ± 6.4
sgRNA knockout: sgATF3, 1000 nM	103 ± 5
sgRNA knockout: sgATF3, 10000 nM	126 ± 17
sgRNA knockout: sgATF4, 10 nM	89.7 ± 13
sgRNA knockout: sgATF4, 100 nM	94 ± 17
sgRNA knockout: sgATF4, 1000 nM	90.2 ± 12
sgRNA knockout: sgATF4, 10000 nM	92.4 ± 19
sgRNA knockout: sgATF6, 10 nM	103 ± 3.8
sgRNA knockout: sgATF6, 100 nM	97.8 ± 4.5
sgRNA knockout: sgATF6, 1000 nM	110 ± 13
sgRNA knockout: sgATF6, 10000 nM	114 ± 12
sgRNA knockout: sgATG7, 10 nM	95.2 ± 1.4
sgRNA knockout: sgATG7, 100 nM	123 ± 15
sgRNA knockout: sgATG7, 1000 nM	124 ± 9
sgRNA knockout: sgATG7, 10000 nM	115 ± 10
sgRNA knockout: sgERN1, 10 nM	95.81 ± 0.72
sgRNA knockout: sgERN1, 100 nM	104 ± 11
sgRNA knockout: sgERN1, 1000 nM	100 ± 1.2
sgRNA knockout: sgERN1, 10000 nM	110 ± 4.6
sgRNA knockout: sgHSF1, 10 nM	92.5 ± 18
sgRNA knockout: sgHSF1, 100 nM	101 ± 3.8
sgRNA knockout: sgHSF1, 1000 nM	96.9 ± 1
sgRNA knockout: sgHSF1, 10000 nM	103 ± 14
sgRNA knockout: sgHSF2, 10 nM	98.7 ± 17
sgRNA knockout: sgHSF2, 100 nM	100 ± 2.8
sgRNA knockout: sgHSF2, 1000 nM	108 ± 18
sgRNA knockout: sgHSF2, 10000 nM	105 ± 33
sgRNA knockout: sgKEAP1, 10 nM	107 ± 4.3
sgRNA knockout: sgKEAP1, 100 nM	88 ± 1.1
sgRNA knockout: sgKEAP1, 1000 nM	97.3 ± 34
sgRNA knockout: sgKEAP1, 10000 nM	105 ± 12
sgRNA knockout: sgNFE2L2, 10 nM	108 ± 13
sgRNA knockout: sgNFE2L2, 100 nM	96.6 ± 22
sgRNA knockout: sgNFE2L2, 1000 nM	119 ± 9.2
sgRNA knockout: sgNFE2L2, 10000 nM	101 ± 28
sgRNA knockout: sgSLC35F2, 10 nM	97.6 ± 11
sgRNA knockout: sgSLC35F2, 100 nM	105 ± 1.6
sgRNA knockout: sgSLC35F2, 1000 nM	112 ± 1.8
sgRNA knockout: sgSLC35F2, 10000 nM	113 ± 24
sgRNA knockout: sgXBP1, 10 nM	90.3 ± 25
sgRNA knockout: sgXBP1, 100 nM	119 ± 32
sgRNA knockout: sgXBP1, 1000 nM	99.5 ± 14
sgRNA knockout: sgXBP1, 10000 nM	89.9 ± 45
